Values quoted from earlier work, collected in patent US20030073069A1, “Drug rescue by redesign of ADMET/PK properties” (priority 2001, published 2003).

Tested on: P450

COC(=O)C1=C(C)NC(C)=C(C(=O)OC)C1c1ccccc1[N+](=O)[O-] [nifedipine]
No. of currently known drug interactions that involve the compound, Inhibition: 1
